The supplement of paper PMC10849652
Some of the results follow.

The chains behind the UniProt entries cited, without tags or fusion partners. Where a name states a change or a piece, a line headed by the entry shows the natural chain unless it says otherwise.
UniProt P28340: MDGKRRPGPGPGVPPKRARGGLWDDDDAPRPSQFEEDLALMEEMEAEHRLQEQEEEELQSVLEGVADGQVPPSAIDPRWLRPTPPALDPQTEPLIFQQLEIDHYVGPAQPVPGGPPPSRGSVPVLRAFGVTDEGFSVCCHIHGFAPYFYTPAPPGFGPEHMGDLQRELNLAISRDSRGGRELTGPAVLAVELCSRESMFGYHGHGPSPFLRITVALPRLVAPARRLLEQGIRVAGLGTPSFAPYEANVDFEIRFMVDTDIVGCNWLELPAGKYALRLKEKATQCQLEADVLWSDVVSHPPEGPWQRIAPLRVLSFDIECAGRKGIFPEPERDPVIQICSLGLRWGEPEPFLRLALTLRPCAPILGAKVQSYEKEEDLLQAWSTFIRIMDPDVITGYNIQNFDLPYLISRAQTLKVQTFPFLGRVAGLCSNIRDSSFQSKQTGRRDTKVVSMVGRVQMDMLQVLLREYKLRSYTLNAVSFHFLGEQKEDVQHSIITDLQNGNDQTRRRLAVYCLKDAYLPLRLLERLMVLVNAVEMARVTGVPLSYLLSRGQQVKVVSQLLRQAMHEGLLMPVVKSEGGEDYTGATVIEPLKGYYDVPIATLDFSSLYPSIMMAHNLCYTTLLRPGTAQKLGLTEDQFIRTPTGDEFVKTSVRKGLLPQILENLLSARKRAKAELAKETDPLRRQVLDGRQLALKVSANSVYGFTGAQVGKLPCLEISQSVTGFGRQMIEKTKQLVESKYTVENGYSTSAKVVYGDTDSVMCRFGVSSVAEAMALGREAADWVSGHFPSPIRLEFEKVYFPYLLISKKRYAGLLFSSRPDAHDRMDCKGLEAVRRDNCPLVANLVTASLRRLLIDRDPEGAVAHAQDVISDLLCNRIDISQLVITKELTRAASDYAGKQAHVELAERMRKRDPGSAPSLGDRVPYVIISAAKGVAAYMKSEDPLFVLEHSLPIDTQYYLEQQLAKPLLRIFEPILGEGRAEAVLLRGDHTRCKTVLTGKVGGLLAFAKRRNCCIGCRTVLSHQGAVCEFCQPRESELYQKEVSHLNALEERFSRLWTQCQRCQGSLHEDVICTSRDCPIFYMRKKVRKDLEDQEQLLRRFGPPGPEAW
UniProt P0DPB6, whole entry, looked up: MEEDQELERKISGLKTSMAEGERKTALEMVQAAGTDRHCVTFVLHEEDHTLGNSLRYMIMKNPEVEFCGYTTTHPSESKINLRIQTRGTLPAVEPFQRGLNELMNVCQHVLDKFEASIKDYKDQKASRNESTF
UniProt Q8NEY8: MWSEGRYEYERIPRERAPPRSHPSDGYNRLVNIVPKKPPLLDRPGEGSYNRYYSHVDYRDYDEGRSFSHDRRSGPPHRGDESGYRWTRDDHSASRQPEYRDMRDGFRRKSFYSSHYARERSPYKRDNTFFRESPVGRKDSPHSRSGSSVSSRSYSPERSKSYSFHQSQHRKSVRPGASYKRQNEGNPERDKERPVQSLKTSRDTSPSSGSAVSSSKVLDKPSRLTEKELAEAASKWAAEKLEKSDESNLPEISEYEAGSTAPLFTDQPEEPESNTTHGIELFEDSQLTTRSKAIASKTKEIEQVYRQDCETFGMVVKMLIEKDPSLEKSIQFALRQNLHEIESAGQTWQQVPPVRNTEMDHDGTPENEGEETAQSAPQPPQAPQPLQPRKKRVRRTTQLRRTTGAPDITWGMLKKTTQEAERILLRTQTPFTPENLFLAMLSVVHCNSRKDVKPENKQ
UniProt Q8IY26: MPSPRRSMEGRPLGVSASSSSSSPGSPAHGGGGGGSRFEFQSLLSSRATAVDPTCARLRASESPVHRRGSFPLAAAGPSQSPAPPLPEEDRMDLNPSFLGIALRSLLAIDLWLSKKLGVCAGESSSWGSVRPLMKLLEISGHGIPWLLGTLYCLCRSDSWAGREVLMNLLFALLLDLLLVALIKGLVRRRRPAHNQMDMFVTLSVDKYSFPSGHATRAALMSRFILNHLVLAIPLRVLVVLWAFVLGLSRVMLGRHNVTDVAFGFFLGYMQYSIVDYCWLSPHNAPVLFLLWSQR
UniProt Q99541: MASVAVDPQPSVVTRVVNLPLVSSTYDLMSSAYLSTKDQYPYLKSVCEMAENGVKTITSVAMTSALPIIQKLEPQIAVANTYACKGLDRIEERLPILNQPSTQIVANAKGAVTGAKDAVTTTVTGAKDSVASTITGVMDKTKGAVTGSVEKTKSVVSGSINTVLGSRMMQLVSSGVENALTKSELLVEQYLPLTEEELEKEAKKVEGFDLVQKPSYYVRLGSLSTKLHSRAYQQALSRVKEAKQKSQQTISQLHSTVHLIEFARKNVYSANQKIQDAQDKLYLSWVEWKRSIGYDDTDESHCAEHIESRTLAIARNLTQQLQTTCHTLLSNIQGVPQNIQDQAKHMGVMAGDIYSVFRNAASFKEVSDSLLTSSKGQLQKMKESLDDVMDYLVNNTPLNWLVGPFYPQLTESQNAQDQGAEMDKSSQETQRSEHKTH
UniProt Q9H307: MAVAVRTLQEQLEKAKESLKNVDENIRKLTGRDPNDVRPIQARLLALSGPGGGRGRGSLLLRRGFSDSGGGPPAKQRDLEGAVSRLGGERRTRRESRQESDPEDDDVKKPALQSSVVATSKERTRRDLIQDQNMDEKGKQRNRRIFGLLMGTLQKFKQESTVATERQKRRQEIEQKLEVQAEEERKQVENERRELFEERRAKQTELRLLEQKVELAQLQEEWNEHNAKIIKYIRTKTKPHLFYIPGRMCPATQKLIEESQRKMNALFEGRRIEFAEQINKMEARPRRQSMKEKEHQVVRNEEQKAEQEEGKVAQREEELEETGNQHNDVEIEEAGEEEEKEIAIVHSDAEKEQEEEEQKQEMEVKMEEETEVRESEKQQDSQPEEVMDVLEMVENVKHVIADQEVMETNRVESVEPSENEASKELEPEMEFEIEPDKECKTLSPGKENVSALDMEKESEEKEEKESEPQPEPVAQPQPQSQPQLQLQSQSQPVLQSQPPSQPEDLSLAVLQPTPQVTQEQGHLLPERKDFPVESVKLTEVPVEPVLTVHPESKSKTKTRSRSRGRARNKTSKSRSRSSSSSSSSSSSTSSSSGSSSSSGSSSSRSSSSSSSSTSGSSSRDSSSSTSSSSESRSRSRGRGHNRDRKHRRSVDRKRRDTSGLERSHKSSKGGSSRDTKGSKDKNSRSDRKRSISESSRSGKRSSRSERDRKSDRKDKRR
UniProt P41247: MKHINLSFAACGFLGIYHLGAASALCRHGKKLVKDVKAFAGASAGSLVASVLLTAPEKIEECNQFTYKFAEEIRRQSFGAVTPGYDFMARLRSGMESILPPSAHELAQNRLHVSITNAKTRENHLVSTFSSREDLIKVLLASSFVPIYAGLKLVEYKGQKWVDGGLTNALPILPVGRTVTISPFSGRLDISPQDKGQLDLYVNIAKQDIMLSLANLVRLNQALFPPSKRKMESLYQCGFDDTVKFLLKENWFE
UniProt Q6EEV4: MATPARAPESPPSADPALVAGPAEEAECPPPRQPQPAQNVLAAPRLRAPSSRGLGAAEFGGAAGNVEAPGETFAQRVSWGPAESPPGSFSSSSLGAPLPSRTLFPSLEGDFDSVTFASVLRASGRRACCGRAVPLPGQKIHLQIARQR
UniProt P0DPB5: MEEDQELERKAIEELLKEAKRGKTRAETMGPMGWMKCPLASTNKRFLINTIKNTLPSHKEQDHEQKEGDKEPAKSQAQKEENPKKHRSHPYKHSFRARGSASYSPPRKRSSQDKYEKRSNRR
UniProt Q9Y4D7: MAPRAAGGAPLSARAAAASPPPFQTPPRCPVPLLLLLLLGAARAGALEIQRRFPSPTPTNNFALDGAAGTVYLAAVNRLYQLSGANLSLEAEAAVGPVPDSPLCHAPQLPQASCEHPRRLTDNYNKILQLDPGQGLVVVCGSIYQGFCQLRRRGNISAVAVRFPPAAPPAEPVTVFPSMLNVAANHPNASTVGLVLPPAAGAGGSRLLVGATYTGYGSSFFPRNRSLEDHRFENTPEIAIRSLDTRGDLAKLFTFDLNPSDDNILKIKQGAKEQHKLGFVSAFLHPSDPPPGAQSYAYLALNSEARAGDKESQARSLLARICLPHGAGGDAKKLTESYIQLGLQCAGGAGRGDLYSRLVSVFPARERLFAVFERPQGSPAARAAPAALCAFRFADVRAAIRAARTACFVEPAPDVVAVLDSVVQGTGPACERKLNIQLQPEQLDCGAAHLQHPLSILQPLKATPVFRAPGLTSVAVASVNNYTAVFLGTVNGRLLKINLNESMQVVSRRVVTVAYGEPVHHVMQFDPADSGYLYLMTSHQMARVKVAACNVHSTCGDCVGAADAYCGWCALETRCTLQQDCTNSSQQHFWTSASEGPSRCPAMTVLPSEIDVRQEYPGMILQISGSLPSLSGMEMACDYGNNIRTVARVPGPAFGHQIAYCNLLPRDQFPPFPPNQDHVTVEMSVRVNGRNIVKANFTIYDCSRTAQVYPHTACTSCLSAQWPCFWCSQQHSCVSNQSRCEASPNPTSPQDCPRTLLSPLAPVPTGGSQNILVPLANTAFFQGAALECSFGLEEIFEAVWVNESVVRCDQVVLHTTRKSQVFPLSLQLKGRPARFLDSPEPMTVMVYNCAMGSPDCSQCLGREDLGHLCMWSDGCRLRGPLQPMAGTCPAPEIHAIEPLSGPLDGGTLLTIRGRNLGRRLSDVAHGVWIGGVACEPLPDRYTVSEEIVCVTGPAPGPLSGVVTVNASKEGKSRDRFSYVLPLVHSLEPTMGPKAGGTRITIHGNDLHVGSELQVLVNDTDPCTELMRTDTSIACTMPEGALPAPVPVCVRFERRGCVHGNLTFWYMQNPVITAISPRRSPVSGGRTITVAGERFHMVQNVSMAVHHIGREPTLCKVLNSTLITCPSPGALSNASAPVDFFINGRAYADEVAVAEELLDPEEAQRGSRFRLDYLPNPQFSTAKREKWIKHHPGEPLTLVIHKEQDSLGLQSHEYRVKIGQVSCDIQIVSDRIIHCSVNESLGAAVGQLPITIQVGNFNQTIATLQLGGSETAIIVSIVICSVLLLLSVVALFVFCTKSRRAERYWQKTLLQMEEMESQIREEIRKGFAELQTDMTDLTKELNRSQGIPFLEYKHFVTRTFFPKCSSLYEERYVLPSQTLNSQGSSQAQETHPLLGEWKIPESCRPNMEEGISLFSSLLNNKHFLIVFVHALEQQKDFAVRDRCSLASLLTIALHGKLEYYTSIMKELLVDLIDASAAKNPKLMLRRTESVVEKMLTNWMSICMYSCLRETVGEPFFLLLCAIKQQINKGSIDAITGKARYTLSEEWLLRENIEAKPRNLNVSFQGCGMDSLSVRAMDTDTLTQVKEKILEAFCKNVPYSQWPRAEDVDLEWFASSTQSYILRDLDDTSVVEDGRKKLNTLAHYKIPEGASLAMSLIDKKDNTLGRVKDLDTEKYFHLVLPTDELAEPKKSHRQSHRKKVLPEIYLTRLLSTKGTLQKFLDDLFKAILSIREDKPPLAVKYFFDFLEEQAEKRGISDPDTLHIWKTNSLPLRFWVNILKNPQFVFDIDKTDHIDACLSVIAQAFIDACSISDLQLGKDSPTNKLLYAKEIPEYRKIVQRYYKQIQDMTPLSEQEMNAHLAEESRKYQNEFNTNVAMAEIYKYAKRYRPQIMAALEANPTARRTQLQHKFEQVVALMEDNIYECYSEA
UniProt O15162: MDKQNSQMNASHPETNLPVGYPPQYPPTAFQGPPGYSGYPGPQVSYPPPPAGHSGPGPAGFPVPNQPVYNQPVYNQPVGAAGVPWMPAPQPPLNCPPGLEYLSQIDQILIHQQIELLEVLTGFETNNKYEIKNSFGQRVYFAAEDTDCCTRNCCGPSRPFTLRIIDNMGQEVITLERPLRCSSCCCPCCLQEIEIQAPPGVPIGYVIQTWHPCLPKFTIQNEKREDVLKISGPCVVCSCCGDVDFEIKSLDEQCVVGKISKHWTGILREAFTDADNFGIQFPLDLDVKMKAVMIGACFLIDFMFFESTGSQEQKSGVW

How the values were obtained:
Experiment in all cases: log2 fold change, soluble protein after heating vs DMSO (PISA); higher = thermal stabilisation; K562 cells, 10 uM, 30 min; active = over 0.2 and 3.5 SD of the protein, either way, in both replicates (recomputed)
[1] = compound: CC[C@@H]1C(=O)N(C)c2cnc(Nc3ccc(C(=O)NC4CCN(C)CC4)cc3OC)nc2N1C1CCCC1
In short: (§1)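 Aliquots of K562 cells (2×10^6 cells/mL) treated with 10 μM compound for 30 min were heated for 3 min over 48°C-58°C. After pooling and extraction in PBS with 0.5% NP-40 at 4°C, soluble protein from a 21,000xg, 90 min spin was quantified by TMTpro 16plex LC-MS/MS with channel sums equalised. Thermal stability is expressed against control samples, from duplicates, as a log2 fold change.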

[2] = compound: CC[C@@H]1C(=O)N(C)c2cnc(Nc3ccc(C(=O)N[C@H]4CC[C@H](N5CCN(CC6CC6)CC5)CC4)cc3OC)nc2N1C(C)C [volasertib]
In short: as §1

[3] = compound: CC[C@H](C)N1C=C(C2=C(C=C(C=C21)C3=CN=C(C=C3)N4CCNCC4)C(=O)NCC5=C(C=C(NC5=O)C)C)C
In short: as §1

[4] = compound: CC[C@H](C)[C@@H](C(=O)N[C@@H]([C@@H](C)O)C(=O)N[C@@H](CC(C)C)C(=O)[C@]1(CO1)C)NC(=O)[C@H]([C@@H](C)CC)N(C)C(=O)C [epoxomicin]
In short: as §1

[5] = compound: CCn1cc(-c2ccnc3[nH]c(-c4cccc(CN(C)C)c4)cc23)c(-c2ccc(NC(=O)N(C)C)cc2)n1
In short: as §1

[6] = compound: CN(C)CC(=O)Nc1ccc2[nH]c(=O)c3ccccc3c2c1
In short: as §1

[7] = compound: CN1C2=C(C3=C1C(=O)N(N=C3)CC4=CC(=CC=C4)N)SC(=C2)S(=O)C
In short: as §1

[8] = compound: CN1CCC(CNc2ccc3ncc(-c4cccc(OC(F)(F)F)c4)n3n2)CC1
In short: as §1

[9] = compound: CCn1c(C(=O)N(C2CC2)C2CC2)cc2c3c(ncn3C)c(Nc3cc(C)n(C)n3)nc21
In short: as §1

[10] = compound: CN(CCOC1=CC=C(C=C1)C[C@H]2C(=O)NC(=O)S2)C3=CC=CC=N3 (racemic) [rosiglitazone]
In short: as §1

Target	log2 fold change [1]	log2 fold change [2]	log2 fold change [3]	log2 fold change [4]	log2 fold change [5]	log2 fold change [6]	log2 fold change [7]	log2 fold change [8]	log2 fold change [9]	log2 fold change [10]
POLD1 (UniProt P28340)	inactive: -0.061	active: -0.239	inactive: 0.053	inactive: 0.123	inactive: -0.005	inactive: 0.027	inactive: -0.03	inactive: -0.171		
POLR2E (UniProt P19388)	inactive: 0.027	inactive: -0.067	inactive: 0.018	inactive: 0.065	inactive: 0.015	inactive: 0.034	inactive: 0.092	inactive: 0.09		
PPAN isoform 3 (UniProt Q9NQ55)	inactive: -0.023	inactive: 0.278	inactive: -0.153	inactive: -0.303	inactive: 0.136	inactive: 0.017	inactive: 0.404	inactive: 0.213	inactive: 0.014	inactive: -0.208
POLR1D (UniProt P0DPB6)	inactive: -0.047	inactive: -0.215	inactive: 0.013	inactive: 0.286		inactive: 0.052	inactive: 0.098		inactive: -0.043	inactive: 0.12
POLR2I (UniProt P36954)	inactive: 0.209	inactive: 0.232	inactive: 0.055	inactive: 0.007	inactive: -0.208	inactive: -0.107	inactive: -0.009	inactive: 0.202		
PPHLN1 (UniProt Q8NEY8)	inactive: 0.018	inactive: -0.059			inactive: 0.109	inactive: -0.216	inactive: 0.216	inactive: -0.163	inactive: -0.051	inactive: -0.04
PLPP6 (UniProt Q8IY26)		inactive: -0.001	inactive: -0.083	inactive: 0.039	inactive: -0.032	inactive: -0.116	inactive: -0.025	inactive: 0.155	inactive: -0.183	inactive: 0.003
PLIN2 (UniProt Q99541)	inactive: -0.173	inactive: -0.259	inactive: -0.102	inactive: 0.153	inactive: -0.01	inactive: 0.013	inactive: 0	active: -0.699		
POLR2K (UniProt P53803)	inactive: -0.259	inactive: -0.002	inactive: -0.05	inactive: -0.032	inactive: -0.049	inactive: 0.05	inactive: -0.02	inactive: 0.05		
PNPLA2 (UniProt Q96AD5)	inactive: 0.11	inactive: 0.126	inactive: 0.015	inactive: -0.041	inactive: 0.156	inactive: -0.044	inactive: -0.025	inactive: -0.068		
POLB (UniProt P06746)	inactive: -0.127	inactive: -0.073	inactive: 0.077	inactive: 0.043	inactive: 0.111		inactive: 0.016	inactive: -0.156		
POLR2J (UniProt P52435)	inactive: -0.071		inactive: -0.062	inactive: 0.262	inactive: 0.019		inactive: 0.057	inactive: 0.083	inactive: -0.151	inactive: 0.56
PNKP (UniProt Q96T60)	inactive: -0.061	inactive: -0.286			inactive: -0.033	inactive: 0.164	inactive: 0	inactive: -0.425		
POLR2C (UniProt P19387)	inactive: 0.059	inactive: -0.187	inactive: 0.017	inactive: 0.075		inactive: 0.006	inactive: -0.04			
POMT2 (UniProt Q9UKY4)	inactive: 0.029	inactive: 0.027				inactive: -0.033	inactive: 0.12			inactive: 0.034
PNN (UniProt Q9H307)	inactive: 0.248	inactive: -0.039	inactive: -0.077	inactive: -0.07	inactive: 0.021		inactive: 0.067	inactive: -0.042		
PNPLA4 (UniProt P41247)	inactive: -0.152	inactive: -0.093	inactive: -0.039			inactive: -0.004	inactive: 0.126			
PLOD2 isoform 2 (UniProt O00469)	inactive: 0.111	inactive: 0.01					inactive: 0.115			
POLR3B (UniProt Q9NW08)	inactive: 0.029	inactive: -0.44	inactive: 0.134	inactive: 0.07	inactive: -0.028	inactive: 0.075	inactive: 0.105	inactive: -0.058		
PPIP5K2 (UniProt H0Y9S9)	inactive: -0.051	inactive: -0.266	inactive: -0.02	inactive: 0.086			inactive: -0.168			inactive: -0.077
POGZ (UniProt Q7Z3K3)	inactive: -0.077	inactive: -0.293		inactive: 0.08	inactive: -0.192	inactive: 0.07	inactive: 0.006	inactive: 0.063		
POLD3 (UniProt Q15054)	inactive: -0.147	inactive: -0.101	inactive: 0.008	inactive: 0.126	inactive: -0.037	inactive: 0.067	inactive: 0.051	inactive: -0.118		
POTEI (UniProt P0CG38)	inactive: -0.009	inactive: -0.009	inactive: -0.043	inactive: -0.039	inactive: 0.009	inactive: -0.006	inactive: -0.06	inactive: 0.035		
POLR2M (UniProt Q6EEV4)	inactive: 0.13	inactive: 0.009	inactive: 0.002	inactive: 0.154		inactive: 0.091	inactive: 0.105			
POC1A (UniProt Q8NBT0)	inactive: -0.039					inactive: 0.076	inactive: -0.135			inactive: 0.088
POLR1D (UniProt P0DPB5)	inactive: 0.213	inactive: 0		inactive: -0.102	inactive: 0.138			inactive: 0.085	inactive: 0.085	inactive: -0.11
PLXND1 (UniProt Q9Y4D7)	inactive: 0.122					inactive: 0.005	inactive: -0.027			inactive: 0.052
PLSCR1 (UniProt O15162)	inactive: 0.025	inactive: -0.1	inactive: -0.069	inactive: -0.022	inactive: 0.053	inactive: 0.037	inactive: -0.02	inactive: 0.044		

Fetched one by one from the entries so far:
Target	log2 fold change [1]	log2 fold change [2]	log2 fold change [3]	log2 fold change [4]	log2 fold change [5]	log2 fold change [6]	log2 fold change [7]	log2 fold change [8]	log2 fold change [9]	log2 fold change [10]
PLOD2 isoform 2 (UniProt O00469)	inactive: 0.111	inactive: 0.01					inactive: 0.115			
PLSCR1 (UniProt O15162)	inactive: 0.025	inactive: -0.1	inactive: -0.069	inactive: -0.022	inactive: 0.053	inactive: 0.037	inactive: -0.02	inactive: 0.044		
